Results on one sequence are retold here after patent US11266714B2 (NoNO Inc., priority 2014, dated 2022).

The series in a line: peptide synthesis. Particulars: purification step, chloride salt.

Where a sequence shows no end group, the ends are not given.

For the sequence YGRKKRRQRRRKLSSIESDV, the step yield came out at 78%. For the same sequence, the “final HPLC purity” value (210 nm) was found to be 99.01%.
